Results as given in the supplement of paper PMC11098740.
± gives the standard deviation of the averaged measurements. Some of the results follow. Single values are uncertain, as repeats are few or missing.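 Test system: a mixed pool of 41 HAP1 clones in which 61 cancer-associated proteins carry fluorescent tags inserted into introns, and each clone is identified from its image pattern. Read-outs are compared with DMSO-treated control wells. The BRD4 degrader dBET6 served as the positive control.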

Amino acid sequences for entries named in this document (tags omitted).
UniProt O14980, whole entry: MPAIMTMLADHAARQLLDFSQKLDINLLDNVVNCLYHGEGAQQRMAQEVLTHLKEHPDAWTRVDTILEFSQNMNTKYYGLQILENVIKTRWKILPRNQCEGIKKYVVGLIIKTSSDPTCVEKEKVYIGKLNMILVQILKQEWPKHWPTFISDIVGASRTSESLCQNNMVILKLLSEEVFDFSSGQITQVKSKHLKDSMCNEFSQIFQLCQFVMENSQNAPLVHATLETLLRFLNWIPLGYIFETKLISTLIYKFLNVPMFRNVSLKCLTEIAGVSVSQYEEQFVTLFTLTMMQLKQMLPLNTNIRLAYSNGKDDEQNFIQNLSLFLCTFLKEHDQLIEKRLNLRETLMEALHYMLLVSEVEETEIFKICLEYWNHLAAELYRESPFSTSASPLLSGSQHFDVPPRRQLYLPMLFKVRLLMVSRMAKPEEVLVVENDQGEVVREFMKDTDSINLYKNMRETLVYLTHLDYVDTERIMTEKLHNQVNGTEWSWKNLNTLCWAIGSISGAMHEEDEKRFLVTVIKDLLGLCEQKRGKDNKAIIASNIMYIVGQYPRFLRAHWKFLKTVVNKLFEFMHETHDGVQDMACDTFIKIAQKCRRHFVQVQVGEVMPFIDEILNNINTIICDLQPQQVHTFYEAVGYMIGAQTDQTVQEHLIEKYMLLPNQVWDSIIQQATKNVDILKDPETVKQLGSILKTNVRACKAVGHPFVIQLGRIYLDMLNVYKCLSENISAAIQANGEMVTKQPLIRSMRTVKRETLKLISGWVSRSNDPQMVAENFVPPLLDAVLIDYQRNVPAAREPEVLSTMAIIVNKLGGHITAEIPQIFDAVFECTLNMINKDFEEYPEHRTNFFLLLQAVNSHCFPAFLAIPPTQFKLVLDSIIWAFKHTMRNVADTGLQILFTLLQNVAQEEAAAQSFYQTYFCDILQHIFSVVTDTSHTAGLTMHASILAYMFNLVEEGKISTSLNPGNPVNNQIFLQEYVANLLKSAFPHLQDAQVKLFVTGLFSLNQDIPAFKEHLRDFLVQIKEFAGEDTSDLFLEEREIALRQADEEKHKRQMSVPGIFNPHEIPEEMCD

target: XPO1 (intron 15 mScarlet tag, HAP1) (UniProt O14980); assay: XPO1 fluorescence intensity change vs DMSO (log2 fold change); higher = more XPO1 protein; conditions: 6 h

| SMILES | XPO1 fluorescence intensity change (log2) |
| --- | --- |
| CC12CC3CC(C)(C1)CC(N)(C3)C2 [Memantine] (9.99939 µM) | 0.0602 |
| O=C(Nc1ncc([N+](=O)[O-])s1)c1ccccc1O [Tizoxanide] (10 µM) | -0.0815 |
| CC(C)C(=O)Nc1ccc([N+](=O)[O-])c(C(F)(F)F)c1 [Flutamide] (20 µM) | 0.021 |
| C[C@H]1[C@@H](O)O[C@@H]2O[C@@]3(C)CC[C@H]4[C@H](C)CC[C@@H]1[C@@]24OO3 [Dihydroartemisinin] (10 µM) | 0.0122 |
| CCc1c2c(nc3ccc(O)cc13)-c1cc3c(c(=O)n1C2)COC(=O)[C@]3(O)CC [7-Ethyl-10-Hydroxy-Camptothecin] (10 µM) | 0.0555 |
| CO[C@H]1C[C@@H]2CC[C@@H](C)[C@@](O)(O2)C(=O)C(=O)N2CCCC[C@H]2C(=O)O[C@H]([C@H](C)C[C@@H]2CC[C@@H](OCCO)[C@H](OC)C2)CC(=O)[C@H](C)/C=C(\C)[C@@H](O)[C@@H](OC)C(=O)[C@H](C)C[C@H](C)/C=C/C=C/C=C/1C [Everolimus] (20 µM) | -0.0243 |
| CC(C(=O)O)c1cccc(Oc2ccccc2)c1 (stereo not given) [Fenoprofen] (10 µM) | 0.0333 |
| Nc1nc(Cl)nc2c1ncn2[C@@H]1O[C@H](CO)[C@@H](O)[C@@H]1F [Clofarabine] (0.1 µM) | -0.0733 ± 0.076 |
| Nc1nc2c(ncn2COC(CO)CO)c(=O)[nH]1 [Ganciclovir] (10 µM) | -0.0639 |
| CCCCCCCCCCCCCCCCCCOP(=O)([O-])OC1CC[N+](C)(C)CC1 [Perifosine] (20 µM) | 0.0265 |
| CC(=O)Oc1ccccc1C(=O)Nc1ncc([N+](=O)[O-])s1 [Nitazoxanide] (10 µM) | 0.074 |
| CCOc1cc2ncc(C#N)c(Nc3ccc(OCc4ccccn4)c(Cl)c3)c2cc1NC(=O)/C=C/CN(C)C [Neratinib] (10 µM) | 0.0359 |
| CO[C@H]1C[C@@H]2CC[C@@H](C)[C@@](O)(O2)C(=O)C(=O)N2CCCC[C@H]2C(=O)O[C@H]([C@H](C)C[C@@H]2CC[C@@H](O)[C@H](OC)C2)CC(=O)[C@H](C)/C=C(\C)[C@@H](O)[C@@H](OC)C(=O)[C@H](C)C[C@H](C)/C=C/C=C/C=C/1C [Rapamycin] (10 µM) | -0.0693 |
| CC1=C(/C=C/C(C)=C\C=C\C(C)=C\C(=O)O)C(C)(C)CCC1 [Alitretinoin] (20 µM) | 0.0888 |
| Cc1cc2cc3c(C)cc(=O)oc3c(C)c2o1 [Trioxsalen] (10.0007 µM) | 0.0928 |

An excerpt of these results, bar-delimited:
SMILES | XPO1 fluorescence intensity change (log2)
O=C(Nc1ncc([N+](=O)[O-])s1)c1ccccc1O [Tizoxanide] (10 µM) | -0.0815
Nc1nc2c(ncn2COC(CO)CO)c(=O)[nH]1 [Ganciclovir] (10 µM) | -0.0639
